In publication PMC7948415 one finds binding data, which are given here for two molecules.

These are yes or no findings as the source states them, for the method shown. Binding can be weak; no strength is given.

In assay [1] the target is alternative C3 convertase, C3bBb (human). Kind of assay: SPR; Biacore T100; properdin amine-coupled to a CM5 chip (5000 RU); C3b (20 μg/ml), factor B (20 μg/ml) and factor D (2 μg/ml) in HBS/MgCl2 injected at 30 μl/min for 120 s without or with SG7.AF, albicin or anophensin (Fig. 9C: 56.8 nM C3b, 107.5 nM factor B, 41.7 nM factor D, inhibitors 1 μM); dissociation at 1 μM inhibitor fitted to a double exponential decay; both purified. A general note: SPR reads the build-up and loss of mass on a sensor chip optically.

Assay [2] has the same target. Kind of assay: SEC; C3b, factor B, factor D and albicin mixed about 1:2:1:5, 15 min at room temperature, Superdex 200 10/300; fractions on silver-stained SDS-PAGE; buffer HBS/MgCl2 (methods) or HBS with 5 mM NiCl2; both purified.

B1: SG7.AF (protein, UniProt C0HMB5 1-119)
chain: ARKHVQELLKTFRRIDFDETRKSVYLQSAKFGVQSQLREPLTKKVLNYWDDVKLSKTCLDRMVTKVNDVKETFYAGFSYACESHNQYSVDCLEAAKPSYLTALGEIRGETEKCLTTRLK
In the case of B1, the binding entry in assay [1] is “binds”.

B2: albicin (protein, UniProt A0A1Y9G8D0 27-142)
chain: ANNHIRTVLKLFRTIDLDDSKKSFYLTAAKYGIQTQLREPIIRIVGGYLPSTKLSEACVKNMISEVYEIEGDFYSKFSYACEDHAPYSVECLEDARDDYLTQLVELFKETKKCLRE
For the molecule B2, the binding result in assay [1] and in assay [2] was “binds” throughout.
